Experimental data published in patent US7368232B2, “High-throughput assay for virus entry and drug screening” (priority 2003, dated 2008).
Some entries share one result that the patent states for a list of compounds. For part of these data: For at least one compound, name, drawing or mass did not settle the structure.

Assays:
[1] = tested on: VSV-G pseudotyped virus containing env-luc1; assay type: cell-based, vesicular stomatitis virus
[2] = tested on: Friend MLV pseudotyped virus; assay type: cell-based, Friend murine leukemia virus
[3] = tested on: Friend MLV containing env-luc1; assay type: cell-based, Friend murine leukemia virus

SMILES	decrease of luciferase entry signal [1]	inhibition of infection (β-galactosidase infection assay) [2]	decrease of luciferase activity (entry signal) [3]
Cl.N [ammonium chloride]	1000 to 10,000 fold	up to 3 fold	
CCN(CC)CCCC(C)Nc1ccnc2cc(Cl)ccc12 (stereo not drawn) [chloroquine]		up to 3 fold	no more than 2 fold
CO/C1=C\C(C)=C\[C@@H](C)[C@@H](O)[C@@H](C)C/C(C)=C/C=C/[C@H](OC)[C@@H]([C@@H](C)[C@@H](O)[C@H](C)[C@@]2(O)C[C@@H](O)[C@H](C)[C@@H](C(C)C)O2)OC1=O [bafilomycin A1]	1000 to 10,000 fold	up to 3 fold	
